Laboratory results reported in PMC8193931.
No constants are given. Whether binding was seen depends on the method and setting. In cells and extracts the contact can be indirect. Some binding calls cover weakened binding; strength is not graded here. Where a sequence is shown, tags or fusion partners need not be part of it.

By UniProt entry, the sequences of proteins in these tests, tags left out.
UniProt Q9ULW0: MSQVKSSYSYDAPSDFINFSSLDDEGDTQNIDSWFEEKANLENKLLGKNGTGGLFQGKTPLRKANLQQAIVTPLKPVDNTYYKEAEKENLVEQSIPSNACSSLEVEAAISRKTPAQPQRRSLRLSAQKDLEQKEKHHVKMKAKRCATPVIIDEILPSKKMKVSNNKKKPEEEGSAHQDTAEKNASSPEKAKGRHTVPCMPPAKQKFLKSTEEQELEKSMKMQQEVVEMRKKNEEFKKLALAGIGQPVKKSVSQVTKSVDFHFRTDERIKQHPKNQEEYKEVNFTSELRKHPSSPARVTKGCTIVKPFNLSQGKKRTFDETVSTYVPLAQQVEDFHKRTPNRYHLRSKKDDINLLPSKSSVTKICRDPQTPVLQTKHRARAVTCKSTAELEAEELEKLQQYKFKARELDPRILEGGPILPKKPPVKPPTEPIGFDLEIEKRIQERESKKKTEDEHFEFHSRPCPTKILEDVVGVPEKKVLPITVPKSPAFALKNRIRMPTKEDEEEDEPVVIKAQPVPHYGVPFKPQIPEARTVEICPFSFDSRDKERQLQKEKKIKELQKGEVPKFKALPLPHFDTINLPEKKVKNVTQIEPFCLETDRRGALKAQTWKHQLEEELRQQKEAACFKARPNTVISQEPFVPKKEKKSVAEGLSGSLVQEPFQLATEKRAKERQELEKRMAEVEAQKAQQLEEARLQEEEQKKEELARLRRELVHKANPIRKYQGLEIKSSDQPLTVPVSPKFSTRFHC

Target: T1, FLAG-ETS-1 (E26 transformation specific sequence 1) (UniProt P14921)
T1 sequence: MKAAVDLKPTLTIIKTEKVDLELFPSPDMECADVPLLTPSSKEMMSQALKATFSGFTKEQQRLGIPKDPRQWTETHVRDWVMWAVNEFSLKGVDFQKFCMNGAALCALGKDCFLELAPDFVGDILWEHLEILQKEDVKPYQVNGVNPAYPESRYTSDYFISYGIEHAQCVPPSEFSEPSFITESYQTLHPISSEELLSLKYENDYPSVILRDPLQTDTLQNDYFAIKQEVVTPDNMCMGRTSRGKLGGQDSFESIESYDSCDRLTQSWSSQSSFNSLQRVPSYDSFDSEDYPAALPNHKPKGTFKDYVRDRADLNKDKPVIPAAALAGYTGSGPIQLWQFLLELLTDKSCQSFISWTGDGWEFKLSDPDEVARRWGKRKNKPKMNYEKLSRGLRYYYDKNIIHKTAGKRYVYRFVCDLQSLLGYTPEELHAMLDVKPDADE
Assay: co-IP; PC-3 cells transfected with FLAG or the FLAG-tagged protein, treated with the solvent control or 10 ng/ml HGF; analysed using the IP methods

binding: binds
Substance: TPX2 (the targeting protein for Xklp2) (from UniProt Q9ULW0 1-747)
